{"source": "PubChem BioAssay AID686937 | Drosophila RNAi Screening Center | 2013", "purpose": "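Knock-downs that reduce output of a secreted reporter enzyme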 (primary screen)", "cell system": "Drosophila S2 cells expressing secreted horseradish peroxidase", "reagents": "long dsRNA against Drosophila genes", "time to read-out": "about 5.5 days (5 days dsRNA, then 12 h reporter induction)", "treatment": "reporter expression induced after 5 days of dsRNA, read 12 h later; inducer not stated", "measurement": "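After 5 days of dsRNA and 12 h of reporter induction, medium peroxidase read by chemiluminescence and scored as per-plate z-score; higher values mean more reporter released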", "scale": "z-score: higher = more reporter secreted into medium", "note": "The deposit covers about 23,000 reagents; below is an unselected part of those that have a named target and a result. 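Reduced-secretion tags in replicate 1 do not always agree with the z-scores; no criterion for assigning the tags was given.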 Further read-outs or replicates are left out here. Not stated in the record: the amount of reagent."}
{"Gene": "CG15236 (GeneID 35595)", "PubChem SID": "SID104184762", "z-score, replicate 1": 0.41}
{"Gene": "CG15236 (GeneID 35595)", "PubChem SID": "SID104201159", "z-score, replicate 1": 2.04}
{"Gene": "CG31404 (GeneID 318714)", "PubChem SID": "SID104195289", "z-score, replicate 1": 0.38}
{"Gene": "RpLP1 (GeneID 33214)", "PubChem SID": "SID104180575", "z-score, replicate 1": -2.06}
{"Gene": "RpLP1 (GeneID 33214)", "PubChem SID": "SID104201696", "z-score, replicate 1": -1.82}
{"Gene": "CG3088 (GeneID 39115)", "PubChem SID": "SID104190144", "z-score, replicate 1": 0.31}
{"Gene": "stw (GeneID 35494)", "PubChem SID": "SID104184634", "z-score, replicate 1": 0.3}
{"Gene": "stw (GeneID 35494)", "PubChem SID": "SID104184635", "z-score, replicate 1": 0.09}
{"Gene": "stw (GeneID 35494)", "PubChem SID": "SID104201970", "z-score, replicate 1": 0.32}
{"Gene": "CG17271 (GeneID 42463)", "PubChem SID": "SID104195002", "z-score, replicate 1": 0.15}
{"Gene": "CG17271 (GeneID 42463)", "PubChem SID": "SID104202039", "z-score, replicate 1": -0.6}
{"Gene": "CG6362 (GeneID 37032)", "PubChem SID": "SID104187205", "z-score, replicate 1": 0.33}
{"Gene": "Mfe2 (GeneID 32582)", "PubChem SID": "SID104199661", "z-score, replicate 1": 0.44}
{"Gene": "IntS6 (GeneID 31496)", "PubChem SID": "SID104198073", "z-score, replicate 1": 0.76}
{"Gene": "Gr28a (GeneID 117348)", "PubChem SID": "SID104182082", "z-score, replicate 1": 0.05}
{"Gene": "BomS2 (GeneID 49802)", "PubChem SID": "SID104201218", "z-score, replicate 1": 1.02}
{"Gene": "CG14177 (retired record) (GeneID 39113)", "PubChem SID": "SID104189968", "z-score, replicate 1": -0.26}
{"Gene": "CheA7a (GeneID 31672)", "PubChem SID": "SID104197757", "z-score, replicate 1": 0.39}
{"Gene": "CG3483 (GeneID 37900)", "PubChem SID": "SID104184163", "z-score, replicate 1": 0.08}
{"Gene": "peo (GeneID 47272)", "PubChem SID": "SID104185787", "z-score, replicate 1": 0.26}
{"Gene": "CG5958 (GeneID 34022)", "PubChem SID": "SID104182707", "z-score, replicate 1": 0.01}
{"Gene": "Ire1 (GeneID 42358)", "PubChem SID": "SID104195398", "z-score, replicate 1": 0.34}
{"Gene": "Yip1d1 (GeneID 34696)", "PubChem SID": "SID104181958", "z-score, replicate 1": -1.15}
{"Gene": "Mur82C (GeneID 40574)", "PubChem SID": "SID104191803", "z-score, replicate 1": -1.93}
{"Gene": "Mur82C (GeneID 40574)", "PubChem SID": "SID104192004", "z-score, replicate 1": 0.26}
{"Gene": "CG10353 (GeneID 32148)", "PubChem SID": "SID104199146", "z-score, replicate 1": -0.55}
{"Gene": "CG3492 (GeneID 37902)", "PubChem SID": "SID104184165", "z-score, replicate 1": 0.11}
{"Gene": "Ugt37A3 (GeneID 41574)", "PubChem SID": "SID104195729", "z-score, replicate 1": -0.17}
{"Gene": "FucTD (GeneID 38164)", "PubChem SID": "SID104188426", "z-score, replicate 1": 0.31}
{"Gene": "Z600 (GeneID 39673)", "PubChem SID": "SID104191109", "z-score, replicate 1": 0.14}
{"Gene": "CG31016 (GeneID 326113)", "PubChem SID": "SID104201132", "z-score, replicate 1": -1.08}
{"Gene": "osy (GeneID 43186)", "PubChem SID": "SID104194695", "z-score, replicate 1": -0.29}
{"Gene": "osy (GeneID 43186)", "PubChem SID": "SID104195771", "z-score, replicate 1": -3.5}
{"Gene": "osy (GeneID 43186)", "PubChem SID": "SID104195773", "z-score, replicate 1": -0.16}
{"Gene": "Su(var)3-7 (GeneID 41627)", "PubChem SID": "SID104196664", "z-score, replicate 1": -0.02}
{"Gene": "pod1 (GeneID 31620)", "PubChem SID": "SID104198154", "z-score, replicate 1": 0.54}
{"Gene": "Con (GeneID 38590)", "PubChem SID": "SID104188444", "z-score, replicate 1": 0.52}
{"Gene": "brv2 (GeneID 39932)", "PubChem SID": "SID104190018", "z-score, replicate 1": -3.96}
{"Gene": "CG17196 (GeneID 43112)", "PubChem SID": "SID104194981", "z-score, replicate 1": 0.36}
{"Gene": "CG8708 (GeneID 35792)", "PubChem SID": "SID104187032", "z-score, replicate 1": 0.47}

Reformatted: results already given
| Gene | PubChem SID | z-score, replicate 1 |
| --- | --- | --- |
| RpLP1 (GeneID 33214) | SID104180575 | -2.06 |
| RpLP1 (GeneID 33214) | SID104201696 | -1.82 |
| CG3088 (GeneID 39115) | SID104190144 | 0.31 |
| stw (GeneID 35494) | SID104184634 | 0.3 |
| stw (GeneID 35494) | SID104184635 | 0.09 |
